# Measurements from PubChem BioAssay AID1508600 (Functional Genomics Laboratory (NCATS/FGL), 2020).
# Among all 53,000 sequences or so, about 3,700 (7%) were called active.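 How the source made its calls: active means gene knockdowns whose robust z-score for IL-1 alpha signal is at least 2 or at most -2, so actives lie on both sides; inactive means the rest.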 The list shows a part of the results.
# Assay: Components of the Cytosolic LPS Sensing Pathway: Gene Identification via Genome-wide siRNA Screen;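 further: robust z of the log signal after scaling to non-targeting control siRNA wells of the plate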
# Settings: RAW264.7 macrophages, IL-1a HTRF, actives lie on both sides, screened at 100 nM (by protocol), cells primed 5 h with Pam3CSK4 first
# Method in brief: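 Cells (RAW264.7, 1×10^4 per well) were transfected with siRNA at 100 nM and cultured 48h at 37 degrees C. Pam3CSK4 was added for 5 hours; LipidA transfection followed for 24 hour. IL-1a was then measured by HTRF.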
row,Sequence,z-score
1,CCUUGUACAACACUGGCCGTT against Car11,inactive: -0.356
2,GGUGUUCAACUCCACUAUGTT against Nhlrc1,inactive: 0.511
3,CCUCAUGUAAUUGGACCAATT against Eef1akmt2,inactive: 0.642
4,CGAAUGUCUCACUCAUUGCTT against Tmem106c,inactive: 0.676
5,GGAUUUUGCACAAACAGAATT against Col11a1,inactive: -1.07
6,GCUCGAUGUGAACUGCUAGTT against Ankrd9,active: 2.12
7,GGAUGAGAACUACAUGAUCTT against Card10,inactive: 0.787
8,GCUUAGGAGAAAGAGCAAUTT against Gpr139,inactive: 0.185
9,GGAAAAUUUGCUGUGGUUATT against Stk17b,inactive: 0.405
10,GGACUAUGCCAAUGUCAGATT against Zfp763,inactive: 0.0585
11,GGGCUUAUGGAGUUGUAAATT against Avpi1,inactive: -0.633
12,GGUCAUGCAAGACAAGAUCTT against Lrrc8c,inactive: 0.487
13,AAUGCUAUUAUACCAACUGTT against Vmn1r214,inactive: 0.86
14,GGAAACCAGGUCUCAGAGUTT against Pde4a,inactive: -0.146
15,GCAGUUAAUACUUACCGCGTT against A430057M04Rik,inactive: 0.657
16,GGCCCUCCCAAAUCAUUUGTT against Slc30a6,inactive: 0.188
17,CGUUUCAACAAGCUCGUGUTT against Rbmxl2,inactive: 1.02
18,GGCAGAAAAUUCUUACAAATT against Spats2l,inactive: 0.935
19,GCAAGUGAUGAAUGCUUACTT against Ncln,active: -2.62
20,GGCAAGGUUCUUGUUUUUATT against Fam187b,inactive: 0.966
21,GCUUAACCUCAGAGAUGAUTT against Mbip,inactive: -0.841
22,GGAAUUAUUCAUGACACAGTT against Hspa9,inactive: 1.32
23,GGAGAUGGGCUUCUAUAUUTT against Nle1,inactive: 0.342
24,GCAAGAAUUAAGUCAGUGGTT against Exoc3l,inactive: -1.56
25,GGAAUCCAGAACUUGAUCGTT against Mfn1,inactive: 0.384
26,GCUCGUGUACCUCUAUCUGTT against Ap2b1,inactive: 0.0179
27,GCCUUGCCCUGACUAUGUUTT against Paqr3,inactive: 0.0997
28,GCUAAAGAACGGUAUAUCGTT against Agxt2,inactive: 0.645
29,GGAUCUGGGAAUCACCUCUTT against Trpv6,inactive: -1.82

# As entered above.
# GCUAAAGAACGGUAUAUCGTT against Agxt2 – z-score: inactive: 0.645
# GGUCAUGCAAGACAAGAUCTT against Lrrc8c – z-score: inactive: 0.487
